Experimental data as given in PubChem BioAssay AID1671190 (National Center for Advancing Translational Sciences (NCATS), 2021).
Values joined by “and” are separate entries in the source; they are usually repeats but may differ in a detail not shown here. Equal values may be shown once. Out of some 580,000 compounds screened, about 6,100 (1.1%) were called active. Inconclusive results, whose numbers are uncertain, are shown with a selection of clear calls. The call rests on the fitted dose curve; in most records, active means well fitted inhibition curve with a large enough effect; inconclusive means small, poorly fitted or top-dose-only effect, or another doubt; inactive means no such curve, though single readings can be large or run the other way. A potency beside an inconclusive call is a rough fit, not a confirmed value.

The chains behind the UniProt entries cited, without tags or fusion partners. Where a name states a change or a piece, a line headed by the entry shows the natural chain unless it says otherwise.
UniProt P18054: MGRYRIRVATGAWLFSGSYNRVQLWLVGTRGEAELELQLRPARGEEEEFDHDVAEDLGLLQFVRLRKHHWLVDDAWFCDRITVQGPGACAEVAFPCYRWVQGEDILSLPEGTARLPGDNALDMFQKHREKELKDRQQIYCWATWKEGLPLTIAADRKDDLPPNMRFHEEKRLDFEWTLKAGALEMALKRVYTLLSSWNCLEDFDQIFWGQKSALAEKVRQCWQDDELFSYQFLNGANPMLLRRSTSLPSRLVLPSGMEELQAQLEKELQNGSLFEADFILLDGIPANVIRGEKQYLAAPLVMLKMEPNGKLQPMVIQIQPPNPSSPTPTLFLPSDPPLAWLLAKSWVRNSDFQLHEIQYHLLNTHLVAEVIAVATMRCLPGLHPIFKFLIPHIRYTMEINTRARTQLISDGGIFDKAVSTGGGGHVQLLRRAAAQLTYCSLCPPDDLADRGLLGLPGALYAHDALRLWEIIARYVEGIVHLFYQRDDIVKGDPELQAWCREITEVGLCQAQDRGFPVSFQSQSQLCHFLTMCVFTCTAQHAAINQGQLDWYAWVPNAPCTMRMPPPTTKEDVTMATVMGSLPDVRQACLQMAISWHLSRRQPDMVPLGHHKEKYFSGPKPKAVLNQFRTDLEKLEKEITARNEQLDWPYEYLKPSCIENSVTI

These compounds were tested against Polyunsaturated fatty acid lipoxygenase ALOX12 (Homo sapiens) (UniProt P18054) (assay: Primary qHTS assay for inhibitors of human arachidonate 12S-lipoxygenase (ALOX12): Round 2). Settings: purified 12hLO, xylenol orange hydroperoxide absorbance; activity change, negative = inhibition: at 108 µM (top of the series) unless noted.
Outline: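 Hydroperoxide product was detected by ferrous iron/xylenol orange as the 573 to 405 nm absorbance ratio. Arachidonic acid at 40 uM (final) was turned over for 30 min at room temperature by 150 nM human 12hLO, pH 7.0 Hepes buffer, after 15 min compound preincubation.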
On the % scale 0 is the no-effect control and ±100 the full control effect; potency means the concentration at half of the fitted maximal effect.

| SMILES | Potency | activity change, negative = inhibition |
| --- | --- | --- |
| O=C(C[N+]1(CC#Cc2ccccc2)CCOCC1)c1ccc(Cl)cc1 | inconclusive: 56.2 µM [inhibitor, single point] and inconclusive: 28.2 µM [inhibitor, partial curve] |  |
| COc1ccc(-c2cc(C(=O)O)c3c(C)nn(-c4ccccn4)c3n2)cc1 |  | inactive: 1.17% |
| Clc1ccc(-c2nn3c(CN4CCOCC4)nnc3s2)cc1 | inconclusive: 44.7 µM [inhibitor, partial curve, poor fit] |  |
| O=C1NC(NS(=O)(=O)c2ccccc2)(C(F)(F)F)C(=O)N1CCc1ccccc1 (stereo not drawn) |  | inconclusive: -30.9% [inhibitor] |
| CNc1ccc2c(cc1=O)[C@@H](NC)CCc1cc(OC)c(OC)c(OC)c1-2 | inconclusive: 56.2 µM [inhibitor, partial curve, poor fit] |  |
| CCN1C(=O)C(Cc2ccc(C)cc2)c2cc(Br)ccc21 (stereo not drawn) | inconclusive: 89.1 µM [inhibitor, partial curve, poor fit] |  |
| CC(C)(C)c1nnc2c3cnn(-c4ccccc4)c3ncn12 |  | inactive: -25.9% |
| CC(NCCC(c1ccccc1)c1ccccc1)c1ccccc1 (stereo not drawn) | inconclusive: 79.4 µM [inhibitor, partial curve, poor fit] |  |
| COc1ccc(CN2CCc3c([nH]c4ccccc34)C2)c(OC)c1C | inconclusive: 5.62 µM [inhibitor, full curve, poor fit] |  |
| CCN(CC(=O)Nc1ccc2c(c1)OCCO2)C(=O)/C=C/c1cc(Br)ccc1OC | inconclusive: 89.1 µM [inhibitor, single point] |  |
| Cc1cc(C)c(S(=O)(=O)N(CC(=O)N2CCCC2)C2CCCCC2)c(C)c1 | inconclusive: 50.1 µM [inhibitor, partial curve, poor fit] |  |
| CNC(=O)c1nc(C)n(-c2ccc(Cl)cc2Cl)n1 |  | inactive: -9.86% |
| CCc1nc2cc(Cl)c(Cl)cc2nc1CC | inconclusive: 112 µM [inhibitor, single point] |  |
| COC(=O)c1ccc(/C=N/N2CCN(Cc3ccc(C)cc3C)CC2)cc1 |  | inactive: 4.4% |
| COc1ccc(C2CC(=O)C(C=NCCO)=C(O)C2)cc1 (stereo not drawn) | inconclusive: 35.5 µM [inhibitor, partial curve, poor fit] |  |
| COc1cc(CNn2c(C)n[nH]c2=S)cc(Cl)c1OCc1ccc(F)cc1 | inconclusive: 56.2 µM [inhibitor, partial curve, poor fit] |  |
| Cc1ccccc1CN1CCCC(C(=O)N2CCCCC2)C1 (stereo not drawn) | inconclusive: 2 µM [inhibitor, partial curve, poor fit] |  |
| Cc1ccc2c(COC(=O)Cc3n[nH]c(=O)c4ccccc34)cc(=O)oc2c1 | inconclusive: 56.2 µM [inhibitor, partial curve, poor fit] |  |
| O=S(=O)(NCCc1nnc2ccc(SCc3cccc(Cl)c3)nn12)c1ccccc1 |  | inactive: -2.34% |
| Cc1cc(Sc2cc(C)c(O)c(C(C)(C)C)c2)cc(C(C)(C)C)c1O | inconclusive: 50.1 µM [inhibitor, partial curve, poor fit] |  |
| COc1cccc(-c2n[nH]c(=S)n2Cc2ccco2)c1OC |  | inactive: -20.3% |

| SMILES | Potency | activity change, negative = inhibition |
| --- | --- | --- |
| NS(=O)(=O)c1ccc(CNC(=O)c2ccccc2SCC(=O)N2CCCC2)cc1 |  | inactive: -18.3% |
| O=C(CCCCCNC(=S)Nc1ccc(Cl)cc1)C[N+](=O)[O-] | inconclusive: 44.7 µM [inhibitor, partial curve, poor fit] |  |
| CC(C)CCC(CCNCc1cccs1)C1CCOC(C)(C)C1 (stereo not drawn) | inconclusive: 0.708 µM [inhibitor, full curve] |  |
| CC(C)n1c(SCC(=O)N2CCN(C)CC2)nc2c1c(=O)n(C)c(=O)n2C |  | inconclusive: -36.3% [inhibitor] |
| COc1ccc(OC)c(NC(=O)C(C)SCc2nc3sc(C)c(C)c3c(=O)[nH]2)c1 (stereo not drawn) |  | inactive: 8.08% |
| C/C(=N\Nc1cccc(Cl)c1)C1(C)N(O)C(C)(C)C(c2ccco2)=[N+]1[O-] (stereo not drawn) | inconclusive: 39.8 µM [inhibitor, partial curve, poor fit] |  |
| Cc1cccc(C(=O)N2CCC3(CC2)c2nc[nH]c2CCN3CC(C)C)n1 |  | inactive: 23% |
| CS(=O)(=O)CCC(C(=O)O)N1C(=O)c2ccc(Oc3ccc(Cl)cc3)cc2C1=O (stereo not drawn) | inconclusive: 79.4 µM [inhibitor, partial curve, poor fit] |  |
| O=C(COC(=O)c1ccccc1O)Nc1ncc(Cl)cc1Cl | inconclusive: 31.6 µM [inhibitor, partial curve, poor fit] |  |
| CCCCCCCCCCCCC(O)C(=O)O (stereo not drawn) |  | inactive: 1.23% [at 12.5 µM] |
| COc1ccccc1N1C(=O)c2cccc3c(Cl)ccc(c23)C1=O |  | inactive: -12% |
| CN(C)c1ccnc(-n2cccc2/C=N/OCc2ccccc2)c1C#N | inconclusive: 7.94 µM [inhibitor, single point] |  |
| c1cncc(-c2nn3c(Cn4cnc5ccccc54)nnc3s2)c1 | inconclusive: 5.01 µM [inhibitor, full curve, poor fit] |  |
| Cc1ccc(NC(=O)N/C=C/c2ccco2)c(C)c1 | inconclusive: 56.2 µM [inhibitor, partial curve, poor fit] |  |
| C/C(=N\OC(=O)Nc1ccccc1)c1cnn(-c2cc(C(F)(F)F)cc(C)n2)c1C | inconclusive: 126 µM [inhibitor, single point] |  |
| CC1CC(C)CN(CCCNC(=O)c2ccc3c(c2)N(Cc2ccccc2)C(=O)c2ccccc2S3=O)C1 (stereo not drawn) |  | inactive: -10.5% |
| COc1ccc(CNC(=O)c2cc(C3CC3)nc3c2cnn3C(C)C)cc1OC | inconclusive: 112 µM [inhibitor, partial curve, poor fit] |  |
| Cc1ccc(/C=C(/SCC(=O)O)c2nc3ccccc3s2)cc1C | inconclusive: 44.7 µM [inhibitor, partial curve, poor fit] |  |
| CNS(=O)(=O)c1ccc(C(=O)NCC(=O)O)cc1 | inconclusive: 89.1 µM [inhibitor, partial curve, poor fit] |  |
| O=C(COc1cccnc1[N+](=O)[O-])c1ccc(Cl)s1 | active: 39.8 µM |  |
| CCCSc1nnc(Cn2c(=O)sc3ccccc32)n1-c1ccccc1 |  | inactive: 359% |

| SMILES | Potency | activity change, negative = inhibition |
| --- | --- | --- |
| CSc1ccc(CN2CCC(C)(Oc3ccccc3F)C2)cc1 (stereo not drawn) | inconclusive: 89.1 µM [inhibitor, single point] |  |
| COc1cc(C(=O)NC2CCCc3c2[nH]c2ccccc32)cc(OC)c1OC (stereo not drawn) | active: 35.5 µM |  |
| Cc1cc(C)cc(C(=O)C(C#N)C(=O)c2cccs2)c1 (stereo not drawn) | inconclusive: 3.55 µM [inhibitor, full curve] |  |
| Cc1ccc(CN2C[C@H]3CN(Cc4ccc(C(=O)O)cc4)CCN3C2=O)cc1 | inconclusive: 25.1 µM [inhibitor, full curve, poor fit] |  |
| CN(C)C(CNC(=O)c1cccc(NS(=O)(=O)c2ccc(Br)cc2)c1)c1ccco1 (stereo not drawn) | inconclusive: 44.7 µM [inhibitor, partial curve, poor fit] |  |
| O=C1NC(c2ccco2)Nc2ccccc21 (stereo not drawn) |  | inactive: 0% |
| O=C(CCN1C(=O)/C(=C/c2cccs2)SC1=S)Nc1ccc(C(=O)O)c(O)c1 | inconclusive: 50.1 µM [inhibitor, partial curve, poor fit] |  |
| N#Cc1ccc(S(=O)(=O)N2CCC(C(=O)N3CCCC3c3ccc4c(c3)OCCO4)CC2)cc1 (stereo not drawn) | inconclusive: 112 µM [inhibitor, single point] |  |
| CC(C)c1ccc(NC(=S)NC2CCN(Cc3ccccc3)CC2)cc1 | inconclusive: 44.7 µM [inhibitor, partial curve, poor fit] |  |
| C[C@@H]1CN([C@H](C)CO)C(=O)c2c(c3ccccc3n2C)-c2ccccc2CO[C@H]1CN(C)C(=O)Cc1ccccc1 | inconclusive: 70.8 µM [inhibitor, single point] |  |
| Cc1ccccc1-n1c(SCC(=O)c2ccccc2)nnc1-c1ccc(F)cc1 | inconclusive: 50.1 µM [inhibitor, partial curve, poor fit] |  |
| CCC(Sc1ccc2nnc(-c3ccc(F)cc3)n2n1)C(=O)O (stereo not drawn) | inconclusive: 4.47 µM [inhibitor, full curve, poor fit] |  |
| O=C(NCCc1cccc(Cl)c1)Nc1ccc(Cl)cc1F | inconclusive: 0.562 µM [inhibitor, full curve] |  |
| Cc1ccc2c(C)nc(/N=C(\N)NC(=O)N3c4ccccc4Sc4ccccc43)nc2c1 | inconclusive: 79.4 µM [inhibitor, single point] and inconclusive: 79.4 µM [inhibitor, partial curve, poor fit] |  |
| CCCCOc1ccc(/C(O)=C2/C(=O)C(=O)N(CCCOC)C2c2ccncc2)cc1 (stereo not drawn) | inconclusive: 3.16 µM [inhibitor, full curve, poor fit] |  |
| CCOC(=O)c1sc2nc(CC(=O)OC)nc(NCc3ccc(F)cc3)c2c1C |  | inactive: 14.9% |
| O=C(NCCN1CCOCC1)c1cc(S(=O)(=O)Nc2ccccc2F)c(Cl)cc1Cl | inconclusive: 35.5 µM [inhibitor, single point] |  |
| Nn1c(SCc2ncc(-c3ccccc3)o2)nnc1-c1ccccc1Cl | inconclusive: 35.5 µM [inhibitor, single point] |  |
| O=C(CCCCCCCC(=O)NNC(=O)c1ccc(Cl)cc1)NNC(=O)c1ccc(Cl)cc1 | inconclusive: 56.2 µM [inhibitor, single point] |  |
| Cc1cc(O)c(C(C[N+](=O)[O-])c2ccc(Cl)cc2)c(=O)o1 (stereo not drawn) | inconclusive: 39.8 µM [inhibitor, partial curve, poor fit] |  |
| COc1ccc(C(=O)N[C@H]2C[C@H]3C(=O)Nc4ccc(-c5ccsc5)cc4C(=O)N3C2)cc1 | inconclusive: 17.8 µM [inhibitor, full curve] |  |

A portion from the list above:

| SMILES | Potency | activity change, negative = inhibition |
| --- | --- | --- |
| Cc1ccc(CN2C[C@H]3CN(Cc4ccc(C(=O)O)cc4)CCN3C2=O)cc1 | inconclusive: 25.1 µM [inhibitor, full curve, poor fit] |  |
| CN(C)C(CNC(=O)c1cccc(NS(=O)(=O)c2ccc(Br)cc2)c1)c1ccco1 (stereo not drawn) | inconclusive: 44.7 µM [inhibitor, partial curve, poor fit] |  |
| O=C1NC(c2ccco2)Nc2ccccc21 (stereo not drawn) |  | inactive: 0% |
| O=C(CCN1C(=O)/C(=C/c2cccs2)SC1=S)Nc1ccc(C(=O)O)c(O)c1 | inconclusive: 50.1 µM [inhibitor, partial curve, poor fit] |  |
| N#Cc1ccc(S(=O)(=O)N2CCC(C(=O)N3CCCC3c3ccc4c(c3)OCCO4)CC2)cc1 (stereo not drawn) | inconclusive: 112 µM [inhibitor, single point] |  |
| CC(C)c1ccc(NC(=S)NC2CCN(Cc3ccccc3)CC2)cc1 | inconclusive: 44.7 µM [inhibitor, partial curve, poor fit] |  |
| C[C@@H]1CN([C@H](C)CO)C(=O)c2c(c3ccccc3n2C)-c2ccccc2CO[C@H]1CN(C)C(=O)Cc1ccccc1 | inconclusive: 70.8 µM [inhibitor, single point] |  |
| Cc1ccccc1-n1c(SCC(=O)c2ccccc2)nnc1-c1ccc(F)cc1 | inconclusive: 50.1 µM [inhibitor, partial curve, poor fit] |  |
| CCC(Sc1ccc2nnc(-c3ccc(F)cc3)n2n1)C(=O)O (stereo not drawn) | inconclusive: 4.47 µM [inhibitor, full curve, poor fit] |  |
| O=C(NCCc1cccc(Cl)c1)Nc1ccc(Cl)cc1F | inconclusive: 0.562 µM [inhibitor, full curve] |  |
| Cc1ccc2c(C)nc(/N=C(\N)NC(=O)N3c4ccccc4Sc4ccccc43)nc2c1 | inconclusive: 79.4 µM [inhibitor, single point] and inconclusive: 79.4 µM [inhibitor, partial curve, poor fit] |  |
